Patent publication US20140363378A1, “SELF-ASSEMBLING MOLECULES THAT ACCUMULATE IN ACIDIC TUMOR MICROENVIRONMENTS” (The Ohio State University, priority 2012, published 2014)
“Also recorded” adds a separate entry of the source. At least one peptide structure holds a part that was inferred or is arguable (an end, a ring closure or a residue). Peptide text beside a SMILES is read from it. * marks the point of attachment. Palmitoyl = CCCCCCCCCCCCCCCC(=O)*

Assays:
Format in all cases: physicochemical
[1] = Circular dichroism (CD) spectroscopy of pH-triggered self-assembly transition
Procedure: The target PA concentration (10 μM) was below the detectable limit of conventional techniques to determine the morphology such as cryoTEM and small-angle X-ray scattering. Consequently, circular dichroism (CD) spectroscopy was initially used to characterize the morphology of these PAs at various pH values. PA 1 was the first molecule synthesized that underwent a self-assembly transition in the desired pH range of 6.6-7.4 at 10 μM PA concentration, in 150 mM NaCl and 2.2 mM CaCl2 (FIG. 2A) (Goldberger, J. E., et al. Angew. Chem. Int. Ed. 2011 50:6292-95). […] The transition pH from random coil to β-sheet occurred at a pH of 6.6. The transition pH was defined as the value at which the ellipticity at 205 nm rises to zero, followed by the appearance of a minimum at 218-220 nm.
Measurements were done on a Jasco-815 Circular Dichroism spectrometer using 1 cm path length quartz cuvettes. […] Double deionized Milli-Q water was used for preparing all solutions. The solutions were then heated at 80° C. for 30 minutes in a water bath and gradually cooled to room temperature. An Accumet XL15 pH meter (Fisher Scientific) coupled with an Orion Ross Ultra semi-micro electrode (8103BNUWP, Thermo Scientific) was used to adjust the pH of the solution to the desired value followed by collection of the CD spectra Each trace shown was averaged over 3 accumulations and was baseline subtracted using aqueous solutions containing salts only. All spectra are cut-off below 205 nm due to absorption by NaCl and CaCl2.

[2] = Transmission electron microscopy (TEM) of self-assembled morphology
Procedure: At a pH of 7.75, HCl was added until the pH was 6.1, and the resulting β-sheet CD spectrum was collected within three minutes. An appropriate amount of NaOH was then added to reverse the pH back to 7.70, and random coil behavior was observed again. […] Conventional transmission electron microscopy (TEM) imaging was used to determine the morphology of 10 μM of PA 1, at pH values of 6 and 8 (FIG. 6A, 6B). The TEM grids were prepared within three minutes of pH adjustment. […] This nanofiber diameter corresponds roughly to twice the molecular length based on MM+ molecular simulations, corresponding approximately to the expected diameter of cylindrical fibers consisting of hydrophobically collapsed β-sheets.
TEM images were obtained using solutions of either 10 μM or 0.5 mM peptide amphiphile concentration, as well as 150 mM NaCl and 2.2 mM CaCl2 in Milli-Q water. The solutions were first heated at 80° C. for 30 minutes in a water bath and then gradually cooled to room temperature. This was followed by pH adjustment using either HCl or NaOH. 5 μL of this solution was pipetted onto a Carbon Formvar grid (Electron Microscopy Sciences) and allowed to sit for 2 minutes before being wicked dry using filter paper. For the 10 μM experiments that were performed to determine the time dependence of nanofiber formation, solutions were dropcast onto the grid within three minutes of pH adjustment. The samples were then negatively stained using 1 wt % uranyl acetate and imaged under a FEI Tecnai G2 Bio TWIN TEM system, operating at 100 kV. All TEM experiments were performed in triplicate, using at least three different freshly prepared solutions and grids.

[3] = Phase transition in simulated serum environment (circular dichroism and critical micelle measurements); settings: basic to acidic transition from small molecule to cylindrical nanofiber; 150 mM NaCl, 2.2 μM CaCl2

Structure (SMILES) | pH above which secondary structure is superimposable random coil ([1]; 10 μM PA, 150 mM NaCl, 2.2 mM CaCl2) | reversibility of random coil / β-sheet transition ([1]; alternating pH, 10 μM PA, 150 mM NaCl, 2.2 mM CaCl2) | time to achieve the expected morphology after pH change ([1]; pH 7.75 to 6.1 and back to 7.70) | morphology by TEM ([2]; 10 μM PA, pH 6, grids within three minutes of pH adjustment) | morphology by TEM ([2]; 10 μM PA, pH 8, grids within three minutes of pH adjustment) | morphology by TEM ([2]; 0.5 mM PA, pH 6.0 and 10.0) | pH Transition point at 10 μM PA [3]
CCCCCCCCCCCCCCCC(=O)N[C@H](C(=O)N[C@@H](C)C(=O)N[C@@H](C)C(=O)N[C@@H](C)C(=O)N[C@@H](CCC(=O)O)C(=O)N[C@@H](CCC(=O)O)C(=O)N[C@@H](CCC(=O)O)C(=O)N[C@@H](CCC(=O)O)C(N)=O)[C@@H](C)CC [PA 1] (Palmitoyl-IAAAEEEE-NH2) | above 6.82 | rapid and reversible | three minutes or less | both individual and bundled fibers were present | No fibers and only staining artifacts were observed; also recorded: no fibers were present | both isolated and bundled nanofibers were observed | –
CCCCCCCCCCCCCCCC(=O)N[C@H](C(=O)N[C@@H](C)C(=O)N[C@@H](C)C(=O)N[C@@H](C)C(=O)N[C@@H](CCC(=O)O)C(=O)N[C@@H](CCC(=O)O)C(=O)N[C@@H](CCC(=O)O)C(=O)N[C@@H](CCC(=O)O)C(N)=O)C(C)C [PA 3] (Palmitoyl-VAAAEEEE-NH2) | – | – | – | – | – | – | 6.2
